In patent US20210380699A1 one finds binding data, which are given here for two molecules.

By UniProt entry, the sequences of proteins in these tests, tags left out. Where a name states a change or a piece, a line headed by the entry shows the natural chain unless it says otherwise. Chains listed by the source or under a name are the forms on record and can include a tag or linker.
Cynomolgus PD-L1 expressed on CHO-S cells (G7PSE7, form named): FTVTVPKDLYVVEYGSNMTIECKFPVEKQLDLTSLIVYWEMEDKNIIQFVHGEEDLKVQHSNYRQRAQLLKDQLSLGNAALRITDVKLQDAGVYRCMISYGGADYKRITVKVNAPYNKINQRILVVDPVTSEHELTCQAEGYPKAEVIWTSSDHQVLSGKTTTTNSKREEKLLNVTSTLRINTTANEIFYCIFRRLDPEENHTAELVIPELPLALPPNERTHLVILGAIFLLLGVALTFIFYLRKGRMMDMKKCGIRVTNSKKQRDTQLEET

This assay addresses Cynomolgus PD-L1 expressed on CHO-S cells (cynomolgus monkey) (UniProt G7PSE7). Briefly: flow cytometry on CHO-S cynomolgus PD-L1 cells. A general note: Flow cytometry measures light scatter and fluorescence of single cells or particles in a stream.

These are yes or no findings as the source states them, for the method shown. Some binding calls cover weakened binding; strength is not graded here.

B1: 413G05 (antibody, human IgG1, kappa, V domains shown)
VH: QVQLVESGGGLVKPGGSLRLSCAASGFTFSDYYMSWIRQVPGKGLEWVSYISTSGSTIYYADSVKGRFTISRDNAKNSLYLQMNSLRAEDAAVYHCARGITGTNFYHYGLGVWGQGTTVTVSS
VL: DIQMTQSPSSVSASVGDRVTITCRASQGINSWLAWYQQKPGKAPKLLIYAASTLQSGVPSRFSGSGSGADFTLTISSLQPEDFATYYCQQVNSFPLTFGGGTKVEIKR
With B1, the binding result is given as “binds”.

B2: 416E01 (human IgG1) (antibody, V domains shown)
VH: EVQLAESGGGLVQPGGSLRLSCAASGFTFSNYAMSWVRQTPGKGLEWVSAISFSGGTTYYADSVKGRFTISRDNSKNTLYLHMNSLRADDTAVYYCAKDEAPAGATFFDSWGQGTLVTVSS
VL: DIQMTQSPSSVSASVGDRVTITCRASQGIRRWLAWYQQKPGKAPKLLISGASSLQSGVPSRFSGSGSGTDFTLIITSLQPEDFATYYCQQANSFPITFGQGTRLEIKR
On to B2, for which the binding entry is given as “binds”.
